This experiment deals with GST-PICK1 full-length (UniProt Q9EP80). As to the kind of experiment: affinity purification with mass spectrometry; proteomics screen following GST-pulldowns using GST-PICK1 as bait; source of the sample not told; only the target purified.

Sequences of proteins named here, by UniProt entry; tags and fusion partners are left off.
UniProt Q9EP80: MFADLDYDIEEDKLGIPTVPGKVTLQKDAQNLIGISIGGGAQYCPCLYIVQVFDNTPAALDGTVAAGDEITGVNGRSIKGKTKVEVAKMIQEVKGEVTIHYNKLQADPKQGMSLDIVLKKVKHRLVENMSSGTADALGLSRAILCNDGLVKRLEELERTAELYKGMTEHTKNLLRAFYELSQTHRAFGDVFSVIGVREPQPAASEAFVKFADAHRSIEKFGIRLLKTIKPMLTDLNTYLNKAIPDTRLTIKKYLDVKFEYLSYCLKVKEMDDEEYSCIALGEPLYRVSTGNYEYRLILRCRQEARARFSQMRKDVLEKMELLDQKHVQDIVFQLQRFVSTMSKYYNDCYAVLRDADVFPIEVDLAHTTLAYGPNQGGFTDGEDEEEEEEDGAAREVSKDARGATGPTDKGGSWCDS
UniProt Q9UKV8: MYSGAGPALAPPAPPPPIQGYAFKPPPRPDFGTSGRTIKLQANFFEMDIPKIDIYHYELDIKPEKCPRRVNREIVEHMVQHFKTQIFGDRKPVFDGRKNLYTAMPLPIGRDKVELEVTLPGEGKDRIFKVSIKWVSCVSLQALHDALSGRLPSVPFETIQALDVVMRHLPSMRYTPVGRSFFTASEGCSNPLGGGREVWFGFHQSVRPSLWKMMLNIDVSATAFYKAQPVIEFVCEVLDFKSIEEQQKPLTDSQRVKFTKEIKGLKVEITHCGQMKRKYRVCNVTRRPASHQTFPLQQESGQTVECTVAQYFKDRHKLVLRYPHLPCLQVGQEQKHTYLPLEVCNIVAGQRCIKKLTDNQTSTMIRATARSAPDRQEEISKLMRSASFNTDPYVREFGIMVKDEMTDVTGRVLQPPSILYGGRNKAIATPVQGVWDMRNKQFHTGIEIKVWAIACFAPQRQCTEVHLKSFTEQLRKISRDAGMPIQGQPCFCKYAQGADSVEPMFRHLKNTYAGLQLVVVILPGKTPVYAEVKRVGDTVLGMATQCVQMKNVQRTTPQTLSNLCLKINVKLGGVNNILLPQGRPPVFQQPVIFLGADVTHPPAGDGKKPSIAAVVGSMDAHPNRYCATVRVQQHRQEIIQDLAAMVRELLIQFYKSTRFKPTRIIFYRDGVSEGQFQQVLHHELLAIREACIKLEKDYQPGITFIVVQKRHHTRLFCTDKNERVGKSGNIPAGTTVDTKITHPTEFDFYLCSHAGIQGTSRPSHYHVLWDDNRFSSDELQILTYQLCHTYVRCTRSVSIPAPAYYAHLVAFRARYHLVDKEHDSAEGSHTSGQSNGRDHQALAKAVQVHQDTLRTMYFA

These are yes or no findings as the source states them, for the method shown. In cells and extracts the contact can be indirect. These calls come from enrichment with a bait or labelling near it, and not all partners need be listed.

In the case of “Ago2 identified in the proteomics screen (from UniProt Q9UKV8 1-859)”, the binding entry is recorded as “binds”.

For the origin of these results see paper PMC4210090.
